Hit rate of the full screen: of about 53,000 sequences, about 3,700 (7%) were called active.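 Rule for the calls: active = gene knockdowns whose robust z-score for IL-1 alpha signal is at least 2 or at most -2, so actives lie on both sides; inactive = the rest.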 Some of the results follow.

This passage reports z-score results from PubChem BioAssay AID1508600 (Functional Genomics Laboratory (NCATS/FGL), 2020).

This assay is described as follows: Components of the Cytosolic LPS Sensing Pathway: Gene Identification via Genome-wide siRNA Screen.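 Note: robust z of the log signal after scaling to non-targeting control siRNA wells of the plate.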 To be noted: RAW264.7 macrophages, IL-1a HTRF, actives lie on both sides, screened at 100 nM (by protocol), cells primed 5 h with Pam3CSK4 first. The procedure, abridged: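 RAW264.7; siRNA 100 nM final, RNAiMAX, 48h 37 degrees C; Pam3CSK4 5 h; LipidA + TransIT-TKO 24 h; IL-1a HTRF; CellTiter-Glo viability; robust z vs negative-control median.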
As for GGUGAUGGAAGUUAGUGUGTT against Bet1, the z-score is inactive: -1.34.
As to GCACAGUUAGCAUUGCUCCTT against Hoxc10, the z-score was inactive: -1.48.
For CCAUAGAGUGGAUAGUCAUTT against Rsl1 the value was inactive: 0.385; for CGCGAGCUCAGAAUACAUGTT against Btn1a1, active: 2.5; for CGAUCACCUUAGUAAAUACTT against Ykt6, inactive: 0.233.
For GGAAGUGUCCUUCUACCAGTT against Hoxd13, the z-score was inactive: -0.00821.
In the case of GGAAGCUCAGCUCCUAUCUTT against Nek4 it was inactive: -1.42; in that of GCAAGAAACCAACCAAUCCTT against Septin6, inactive: -0.74; in that of GCUACAAGUACUGGUUUCUTT against Pcnx3, inactive: 1.4.
In the case of GGAUGCUAUAAAAUCACCATT against Rps27 it was inactive: 0.667.
For GGGUAUGUCGGAGACCUUUTT against Cnpy3 the value was inactive: -0.637.
Regarding GGAUGAAGGGACGAAUUCATT against Pcdha6, the z-score is inactive: 0.635.
For GGCCCAACAAUACCUGCUGTT against Rgs17 the value was inactive: -1.5.
In the case of GGUUUCGUAGCUUAACCACTT against Rab27a it was inactive: -0.996.
In the case of GGAUACACAGACAUUAAUCTT against Cd164 it was inactive: 1.14.
With GGGCUUCAUUCUCGUCUACTT against Rap2b, the z-score is inactive: 1.41.
In the case of GGACUACGGAUACAGGAUATT against Sfrp5 it was inactive: 0.178; in that of GGAGAAUACAGUGGAAUUGTT against Idh3a, inactive: 0.951; in that of “GGACUCAGCACUCUUUUGCTT against E130311K13Rik”, inactive: -1.04.
In the case of CCGCAUGAACUUCCUACAGTT against Ugt1a1 it was inactive: 1.2; in that of GGAGAUGGCCAAAAAAGAGTT against Pop1, inactive: -0.519; in that of CGAGUGACAGCUAAGUAUGTT against Pskh1, inactive: -1.4.
In the case of GCGGCUAAUUCGUUCUUUCTT against Atp8a1 it was inactive: 0.708; in that of GCACUGGGAAGAAAAUUCUTT against Olfr130, inactive: -1.42.
On to GCGAGAUGCCAACAAACUGTT against Pacs1, for which the z-score is inactive: 0.678.
For GGGUUCAAGGUAUUCUUAGTT against Vmn1r225 the value was inactive: -1.88.
For GGCAUGAGUCACUUGAUGATT against Hebp1 the value was inactive: -0.999; for GCCUUUACCGAGUGCACAUTT against Ttyh3, inactive: 1.8.
In the case of GCAGGAUUCAAAGAUCUAATT against Kbtbd8 it was inactive: -0.587; in that of GGCGUGUCCUACCUUGAAATT against Scg3, inactive: 0.81; in that of “CCUUGUUUGAAUAACGAACTT against 5830427D03Rik”, inactive: -1.73.
On to GUACAUCAUAGCCAAGUUCTT against Foxl2, for which the z-score is inactive: -0.468.
For GCAAAUACUCUCAACUAACTT against Celsr3 the value was inactive: 0.686; for GGAUAAAUGCCAUUUUGGATT against Cpeb1, inactive: -0.664.
Turning to GGACUGUGGAUAACCUGCUTT against Hspb2, the z-score was active: -2.55.
In the case of GGACAAGUAAAACAGAACATT against Muc4 it was inactive: 1.5.
For the sequence GCCUUGUGACGACAUAAAGTT against Rabl3, the z-score was inactive: -1.75.
In the case of GGACCAUCUGUCCACAGUUTT against Dglucy it was inactive: -0.758.
For CCCUGUAGAAAUUCAAGCCTT against Lyrm4 the value was inactive: 0.38.
In the case of CGUAUGUUGGAACAAAUGCTT against Map2k5 it was inactive: 1.94; in that of GCCUUUAAGUGGAAUCAGUTT against Serhl, inactive: -1.12; in that of GGCUUUCGGUUAUGACCAATT against Alas2, inactive: -0.385.
GCAUGGAGUGUGCAUUCCATT against Tcf25: the z-score is inactive: -0.954.
For GGAAAGGAAUGUUCAAAUUTT against Psmb8 the value was active: 2.02.
As for CCAUGGCCUAGAGCUGGAUTT against Unc5cl, the z-score was inactive: 0.315.
For GCCUAUGCACCUUACCUUUTT against Sae1, the z-score is inactive: 0.936.
In the case of “CCAUAUUCCGGUUAAUUCATT against 1700102P08Rik” it was inactive: 0.909; in that of GGAGUACAAAGAAAGGAACTT against Nop14, inactive: 0.588; in that of GUACACCAGUGGAAGCACATT against Sprr2b, inactive: -1.91.
In the case of GGAAUCAACAAGGUUAUCATT against Glb1l2, the z-score is inactive: 0.205.
In the case of CCCUGUUACAGUCAGAAGCTT against Slc39a13 it was inactive: 0.286; in that of CAUAUGAAAAUGAAUGCCATT against Spink4, inactive: 0.166; in that of GGAGUCAUAUGCACAGAUCTT against Tcte3, inactive: -0.706.
In the case of CCCUAAACCAGAUGCGUACTT against Epn3 it was inactive: -0.754; in that of GCGCAUGACUACAUCAGCUTT against Ptgs1, inactive: -0.736.
Regarding GCAGCUCGAUGGAACUCCATT against Abl1, the z-score is inactive: 0.0525.
In the case of GGGUUUGGCCAUGAAUUUGTT against Hgf it was inactive: 0.356; in that of GCACGAGAUUGACUUGCCUTT against Ldlrad4, inactive: -1.44.
In the case of GGUCAGAUUCUUUGAUGAATT against Ssr4 it was inactive: 0.11.
In the case of GGCUGAAGGGCUCUACAAATT against Susd4 it was inactive: 1.66; in that of GGACAAGAAGAAAAAGAAGTT against Tmie, inactive: -1.96; in that of GGUCUUUUCUAUUAUGGGATT against Strc, inactive: 1.22.
Regarding GGCUCUUAGAAAAAUGUUATT against Olfr1156, the z-score is inactive: -0.816.
For GGCUUUGAUUGAACAUGAGTT against Lypla2 the value was inactive: -1.85; for GCGGUAGAGACUACAGCCUTT against BC028528, inactive: 0.192; for GGCAAAGACAUUGAUCCACTT against Slc5a12, inactive: -0.745.
In the case of GGGAUCCUUGUAUUUCUUUTT against Ctns it was inactive: -0.576.
For GGUUCUCAUCAACCUUCUCTT against Olfr109 the value was inactive: 0.484.
